{"source": "PubChem BioAssay AID652243 (Drosophila RNAi Screening Center, 2013)", "assay": "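Knock-downs that decrease or increase androgen receptor reporter signal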 (primary screen)", "cell system": "Drosophila S2R+ cells", "knock-down reagent": "long dsRNA against Drosophila genes", "duration": "72 h (48 h, then 24 h hormone)", "challenge": "synthetic androgen R1881 at 10 nM for 24 h", "measured": "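Firefly light from an androgen-responsive reporter and Renilla control light per well, raw and unnormalised, for each of two replicates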", "direction": "firefly reporter light: higher = more light from androgen-responsive reporter; Renilla control light: higher = more constitutive control signal (cell number, transfection)", "active means": "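Across duplicate plates, a knock-down whose log firefly/Renilla ratio shifted a set fold down or up from the GFP/LacZ control mean was a hit; the downward cut appears as both 1.5 and 3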", "calls": "active = hit: reporter lowered or raised; inactive = no hit", "note": "In all, the deposit lists about 24,000 reagents; this is a random part of those that have a named target and a result. In the full data, 246 (1%) got an active call. 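Plates not normalised; calls are printed but the firefly/Renilla ratio behind them is not deposited; fold cut for lowering reported inconsistently.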 The raw values are shown without normalisation. Reagents against one gene are numbered here. Not given: the amount of reagent."}
{"Gene": "CG5828", "dsRNA no.": 1, "firefly reporter light, replicate 1": 90483, "firefly reporter light, replicate 2": 1.60e5, "Renilla control light, replicate 1": 1.21e6, "Renilla control light, replicate 2": 1.22e6, "call": "inactive"}
{"Gene": "CG5828", "dsRNA no.": 2, "firefly reporter light, replicate 1": 7.19e5, "firefly reporter light, replicate 2": 7.10e5, "Renilla control light, replicate 1": 9.55e5, "Renilla control light, replicate 2": 9.41e5, "call": "inactive"}
{"Gene": "Prtl99C (Protamine-like 99C)", "dsRNA no.": 1, "firefly reporter light, replicate 1": 1.12e5, "firefly reporter light, replicate 2": 1.34e5, "Renilla control light, replicate 1": 1.57e6, "Renilla control light, replicate 2": 1.96e6, "call": "inactive"}
{"Gene": "ReepA (Receptor expression enhancing protein A)", "dsRNA no.": 1, "firefly reporter light, replicate 1": 8.03e5, "firefly reporter light, replicate 2": 7.62e5, "Renilla control light, replicate 1": 1.04e6, "Renilla control light, replicate 2": 1.03e6, "call": "inactive"}
{"Gene": "ReepA (Receptor expression enhancing protein A)", "dsRNA no.": 2, "firefly reporter light, replicate 1": 2.57e5, "firefly reporter light, replicate 2": 6.17e5, "Renilla control light, replicate 1": 8.23e5, "Renilla control light, replicate 2": 1.32e6, "call": "inactive"}
{"Gene": "ReepA (Receptor expression enhancing protein A)", "dsRNA no.": 3, "firefly reporter light, replicate 1": 3.24e5, "firefly reporter light, replicate 2": 2.52e5, "Renilla control light, replicate 1": 7.77e5, "Renilla control light, replicate 2": 7.63e5, "call": "inactive"}
{"Gene": "ReepA (Receptor expression enhancing protein A)", "dsRNA no.": 4, "firefly reporter light, replicate 1": 4.00e5, "firefly reporter light, replicate 2": 2.50e5, "Renilla control light, replicate 1": 9.47e5, "Renilla control light, replicate 2": 9.56e5, "call": "inactive"}
{"Gene": "Ziz (Zizimin)", "dsRNA no.": 1, "firefly reporter light, replicate 1": 2.23e5, "firefly reporter light, replicate 2": 2.33e5, "Renilla control light, replicate 1": 2.37e6, "Renilla control light, replicate 2": 2.23e6, "call": "inactive"}
{"Gene": "Ziz (Zizimin)", "dsRNA no.": 2, "firefly reporter light, replicate 1": 2.09e5, "firefly reporter light, replicate 2": 1.39e5, "Renilla control light, replicate 1": 1.72e6, "Renilla control light, replicate 2": 1.07e6, "call": "inactive"}

Continued (3 carried over from the part before).
{"Gene": "ReepA (Receptor expression enhancing protein A)", "dsRNA no.": 4, "firefly reporter light, replicate 1": 4.00e5, "firefly reporter light, replicate 2": 2.50e5, "Renilla control light, replicate 1": 9.47e5, "Renilla control light, replicate 2": 9.56e5, "call": "inactive"}
{"Gene": "Ziz (Zizimin)", "dsRNA no.": 1, "firefly reporter light, replicate 1": 2.23e5, "firefly reporter light, replicate 2": 2.33e5, "Renilla control light, replicate 1": 2.37e6, "Renilla control light, replicate 2": 2.23e6, "call": "inactive"}
{"Gene": "Ziz (Zizimin)", "dsRNA no.": 2, "firefly reporter light, replicate 1": 2.09e5, "firefly reporter light, replicate 2": 1.39e5, "Renilla control light, replicate 1": 1.72e6, "Renilla control light, replicate 2": 1.07e6, "call": "inactive"}
{"Gene": "Cln7", "dsRNA no.": 1, "firefly reporter light, replicate 1": 1.19e6, "firefly reporter light, replicate 2": 4.49e5, "Renilla control light, replicate 1": 2.08e6, "Renilla control light, replicate 2": 1.58e6, "call": "inactive"}
{"Gene": "Mtmr6 (Myotubularin related protein 6)", "dsRNA no.": 1, "firefly reporter light, replicate 1": 3.36e5, "firefly reporter light, replicate 2": 2.73e5, "Renilla control light, replicate 1": 2.21e6, "Renilla control light, replicate 2": 1.77e6, "call": "inactive"}
{"Gene": "Mtmr6 (Myotubularin related protein 6)", "dsRNA no.": 2, "firefly reporter light, replicate 1": 2.58e5, "firefly reporter light, replicate 2": 2.44e5, "Renilla control light, replicate 1": 5.67e5, "Renilla control light, replicate 2": 6.09e5, "call": "inactive"}
{"Gene": "Mtmr6 (Myotubularin related protein 6)", "dsRNA no.": 3, "call": "inactive"}
{"Gene": "Mtmr6 (Myotubularin related protein 6)", "dsRNA no.": 4, "call": "inactive"}
{"Gene": "Eaf6 (Esa1-associated factor 6)", "dsRNA no.": 1, "firefly reporter light, replicate 1": 3.92e5, "firefly reporter light, replicate 2": 3.30e5, "Renilla control light, replicate 1": 2.38e6, "Renilla control light, replicate 2": 3.45e6, "call": "inactive"}
{"Gene": "CG32228", "dsRNA no.": 1, "firefly reporter light, replicate 1": 8.85e5, "firefly reporter light, replicate 2": 7.82e5, "Renilla control light, replicate 1": 1.49e6, "Renilla control light, replicate 2": 1.23e6, "call": "inactive"}
{"Gene": "CG31337", "dsRNA no.": 1, "firefly reporter light, replicate 1": 2.42e5, "firefly reporter light, replicate 2": 1.96e5, "Renilla control light, replicate 1": 3.14e5, "Renilla control light, replicate 2": 4.79e5, "call": "inactive"}
{"Gene": "hob (hobbit)", "dsRNA no.": 1, "firefly reporter light, replicate 1": 9.76e5, "firefly reporter light, replicate 2": 8.17e5, "Renilla control light, replicate 1": 1.06e6, "Renilla control light, replicate 2": 1.21e6, "call": "inactive"}
{"Gene": "hob (hobbit)", "dsRNA no.": 2, "firefly reporter light, replicate 1": 1.13e6, "firefly reporter light, replicate 2": 9.91e5, "Renilla control light, replicate 1": 1.13e6, "Renilla control light, replicate 2": 1.00e6, "call": "inactive"}
{"Gene": "CG12645", "dsRNA no.": 1, "firefly reporter light, replicate 1": 2.60e5, "firefly reporter light, replicate 2": 3.53e5, "Renilla control light, replicate 1": 3.06e6, "Renilla control light, replicate 2": 2.74e6, "call": "inactive"}
{"Gene": "CG12645", "dsRNA no.": 2, "firefly reporter light, replicate 1": 8.70e5, "firefly reporter light, replicate 2": 1.16e6, "Renilla control light, replicate 1": 1.18e6, "Renilla control light, replicate 2": 9.34e5, "call": "inactive"}
{"Gene": "Strump (Strumpellin)", "dsRNA no.": 1, "firefly reporter light, replicate 1": 1.38e5, "firefly reporter light, replicate 2": 1.25e5, "Renilla control light, replicate 1": 1.21e6, "Renilla control light, replicate 2": 1.22e6, "call": "inactive"}
{"Gene": "Bcat (Branched chain amino acid transaminase)", "dsRNA no.": 1, "firefly reporter light, replicate 1": 5.94e5, "firefly reporter light, replicate 2": 7.09e5, "Renilla control light, replicate 1": 3.57e6, "Renilla control light, replicate 2": 4.06e6, "call": "inactive"}
{"Gene": "Bcat (Branched chain amino acid transaminase)", "dsRNA no.": 2, "firefly reporter light, replicate 1": 3.71e5, "firefly reporter light, replicate 2": 6.87e5, "Renilla control light, replicate 1": 1.50e6, "Renilla control light, replicate 2": 2.18e6, "call": "inactive"}
{"Gene": "CG15537", "dsRNA no.": 1, "firefly reporter light, replicate 1": 1.85e5, "firefly reporter light, replicate 2": 2.17e5, "Renilla control light, replicate 1": 1.31e6, "Renilla control light, replicate 2": 2.42e6, "call": "inactive"}
{"Gene": "CG15537", "dsRNA no.": 2, "firefly reporter light, replicate 1": 6.90e5, "firefly reporter light, replicate 2": 6.49e5, "Renilla control light, replicate 1": 7.96e5, "Renilla control light, replicate 2": 8.87e5, "call": "inactive"}
{"Gene": "exex (extra-extra)", "dsRNA no.": 1, "firefly reporter light, replicate 1": 1.03e5, "firefly reporter light, replicate 2": 79517, "Renilla control light, replicate 1": 1.51e6, "Renilla control light, replicate 2": 9.92e5, "call": "inactive"}
{"Gene": "exex (extra-extra)", "dsRNA no.": 2, "firefly reporter light, replicate 1": 7.72e5, "firefly reporter light, replicate 2": 4.44e5, "Renilla control light, replicate 1": 6.61e5, "Renilla control light, replicate 2": 5.12e5, "call": "inactive"}
